Experimental data from patent US20210023223A1, “HYDROCARBON / LIPID - CAROTENOID COMPLEXES” (IP SCIENCE LIMITED, priority 2018, published 2021).

Key:
[1] = Cooking time of wild salmon at 180° C.; settings: for Cooking time for the wild salmon: control 24 minutes
[2] = Vitamin B12 in cooked wild salmon

Row | Compound | Reduction of cooking time for the wild salmon [1] [%] | Cooking time for the wild salmon [1] [min] | Vitamin B12 level in cooked fish vs control olive oil [2]
1 | CC1=C(/C=C/C(C)=C/C=C/C(C)=C/C=C/C=C(C)/C=C/C=C(C)/C=C/C2=C(C)C(=O)[C@@H](O)CC2(C)C)C(C)(C)C[C@H](O)C1=O [Astaxanthin, astaxanthin] | 40 | 14 | did not translate to any significant preservation
2 | CC(C)=CCC/C(C)=C/C=C/C(C)=C/C=C/C(C)=C/C=C/C=C(C)/C=C/C=C(C)/C=C/C=C(\C)CCC=C(C)C [Lycopene] | 40 | 14 | 15 fold
